Experimental data as given in PubChem BioAssay AID504842 (National Center for Advancing Translational Sciences (NCATS), 2011).
In all, about 330,000 compounds went through this assay and about 100 (0.03%) were called active. Inconclusive results, whose numbers are uncertain, are shown with a selection of clear calls. The call rests on the fitted dose curve; in most records, active means well fitted inhibition curve with a large enough effect; inconclusive means small, poorly fitted or top-dose-only effect; inactive means flat fitted curve, though single readings scatter. A potency beside an inconclusive call is a rough fit, not a confirmed value.

Each compound was assayed on Chaperonin Mm-Cpn (Methanococcus maripaludis) (assay: Inhibitors of TCP-1 ring complex (TRiC) of Methanococcus maripaludis (MmCpn): qHTS). Details: purified Mm-Cpn ATPase, ADP Transcreener TR-FRET.
Method in brief: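 Eu-cryptate anti-ADP/ADP-d2 competition gives a ratio inversely related to ADP. Enzyme at 25 nM was pre-exposed to compound for 10 min, then given 10 uM ATP for 30 min, 37°C throughout.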
Further: nearly all actives have a fitted effect of over 80% in size.
Potency means the concentration at half of the fitted maximal effect.
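Wherever potency is given: enzyme at 25 nM with ATP substrate at 10 µM during the reaction.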

Potency, inconclusive:
CCC(C)C(=O)Nc1nc(C)c(-c2csc(Nc3ccccc3OC)n2)s1 (stereo not drawn) 89.1 µM [inhibitor, single point], O=C(NC(C(=O)N/N=C/c1ccccc1)c1n[nH]c(=O)c2ccccc12)c1ccccc1 (stereo not drawn) 100 µM [inhibitor, single point], CC(C)C(C(=O)NC1=NCCS1)c1ccc(Cl)cc1 (stereo not drawn) 22.4 µM [inhibitor, single point], Cc1nc(Nc2ccc3c(c2)OCCO3)c2nnn(Cc3ccccc3Cl)c2n1 251 µM [inhibitor, partial curve, poor fit], O=C(Nc1ccc(N2CCOCC2)cc1)C1CC(=O)N(c2ccccc2)C1 (stereo not drawn) 79.4 µM [inhibitor, single point], CCc1ccc(Nc2n[n+](-c3ccccc3)c(-c3cccc(C)c3)s2)cc1 56.2 µM [inhibitor, partial curve, poor fit], Cc1ccc(C)c(OCCOCCN2CC(C)OC(C)C2)c1C (stereo not drawn) 25.1 µM [inhibitor, single point], Cc1[nH]n(-c2ccccc2)c(=O)c1/C=N/NC(=O)c1cccc(F)c1 25.1 µM [inhibitor, single point], CC(=O)/C(C#N)=C1\NC(=O)C(Cc2ccc(C)c(C)c2)S1 (stereo not drawn) 22.4 µM [inhibitor, single point], O=C1c2ccccc2C(=O)c2c(NCCCN(CCO)CCO)cccc21 112 µM [inhibitor, partial curve, poor fit], CCOC(=O)c1c(NC(C)=O)sc2c(OC)cccc12 200 µM [inhibitor, partial curve, poor fit], Cc1ccc(C(=O)NC(=S)NCCN2CCOCC2)cc1 22.4 µM [inhibitor, single point], O=C(NNC1=Nc2ccccc2SC1)c1ccc(Cl)cc1 56.2 µM [inhibitor, single point], CC(=O)N(/N=C1/C(=O)Nc2ccccc21)c1ccccc1 100 µM [inhibitor, single point]

Potency, inactive:
O=S(=O)(c1ccc(OCC(O)CN2CCN(c3ccccc3O)CC2)cc1)N1CCOCC1 (stereo not drawn), O=C(CCS(=O)(=O)c1ccc(Br)cc1)N1CCN(c2ccccc2Cl)CC1, COc1ccc(-c2cc(-n3c(C(F)(F)F)nc4ccccc43)n(CCC#N)n2)cc1, COC(=O)c1nn(-c2cccc(C)c2)c2nnc(Cc3ccc(C)cc3)c(=O)n12
